Measurements: publication PMC10989996
These are yes or no findings as the source states them, for the method shown. Binding seen in cells or lysates may run through a third protein. Some entries that bind do so weakly or less than the wild type.

Sequences of proteins named here, by UniProt entry; tags and fusion partners are left off.
UniProt Q9D0L8: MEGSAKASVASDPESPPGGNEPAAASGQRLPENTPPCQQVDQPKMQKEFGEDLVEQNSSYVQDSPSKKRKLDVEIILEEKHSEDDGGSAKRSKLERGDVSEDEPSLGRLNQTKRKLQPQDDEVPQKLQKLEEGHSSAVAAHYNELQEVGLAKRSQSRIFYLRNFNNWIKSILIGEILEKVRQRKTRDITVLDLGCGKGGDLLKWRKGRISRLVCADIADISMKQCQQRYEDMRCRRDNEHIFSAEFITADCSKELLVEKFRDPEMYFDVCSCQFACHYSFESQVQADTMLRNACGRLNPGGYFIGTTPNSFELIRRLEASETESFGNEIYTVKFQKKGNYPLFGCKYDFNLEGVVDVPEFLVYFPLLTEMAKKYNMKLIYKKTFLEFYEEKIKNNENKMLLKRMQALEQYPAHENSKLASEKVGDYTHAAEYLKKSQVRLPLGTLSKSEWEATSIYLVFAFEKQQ
UniProt Q9CQY2: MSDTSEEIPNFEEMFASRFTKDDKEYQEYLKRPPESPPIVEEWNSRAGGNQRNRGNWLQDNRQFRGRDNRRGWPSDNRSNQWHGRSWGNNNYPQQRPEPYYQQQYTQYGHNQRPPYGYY

Target: RNMT (RNA guanosine N-7 cap methyltransferase) (mouse (endogenous in mouse brain)) (UniProt Q9D0L8)
Test: co-IP; RNMT immunoprecipitated from mouse brain lysate; RAM detected by Western blot; run as a marker for the migration of RAM

Substance: RAM (RNMT-Activating Mini protein/RAMAC/Fam103a1) (from UniProt Q9CQY2 1-119)
- binding: binds
